Measurements reported in patent US20110045003A1 (SYNOVEX, published 2011).
No constants are given. Whether binding was seen depends on the method and setting. Some results given as binding are weak or reduced against the parent protein; the word gives no strength.

Assays:
[1] = molecular target: humanized anti-Cad-11 EC1 antibody SDP051 (Vκ1/VH5); assay: peptide competition, flow cytometry; peptide titrated against 0.5 µg/ml SDP051 on Cad-11 expressing 431D cells
[2] = molecular target: humanized anti-Cad-11 EC1 antibody SDP051 (Vκ1/VH5); assay: flow cytometry competition: peptide titrated with SDP051 at 0.5 ug/ml on Cad-11 expressing 431D cells; MFI = SDP051 bound to cell Cad-11

B1: BSA coupled 37-mer Cad-11 peptide encompassing the Cad-11 immunogen (peptide, UniProt P55287 54-90, looked up)
peptide: GWVWNQFFVIEEYTGPDPVLVGRLHSDIDSGDGNIKY
modifications: linked to BSA
With B1 the binding [1] was “binds” and the binding [2] was “binds”.
